Source: PubChem BioAssay AID587 (National Center for Advancing Translational Sciences (NCATS), 2007)
“And” between values parts separate entries of the source, which are not always exact repeats. Equal values may be shown once. The whole screen tested about 59,000 compounds, of which about 35 (0.06%) were called active. The shares of active, inactive and inconclusive entries below differ from those in the screen. Cut-off read from the data, not from the text of the source: active = max dye-equivalent concentration above about 10 nM; inconclusive = between about 1.1 nM and that limit; inactive = weaker than that.

Experiment: qHTS Assay for Spectroscopic Profiling in Texas Red Spectral Region
Conditions: Compound fluorescence, Texas Red channel, 547/618 nm; active compounds read high
How it was run: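 Dye-equivalent concentrations come from scaling compound signal (ex 547, em 618 nm) to six Texas Red standard concentrations run on every plate, after 15 min room-temperature incubation in pH 8.0 Tris (100 mM).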

| Structure (SMILES) | max dye-equivalent concentration |
| --- | --- |
| CCCc1cc(-c2n[nH]c(C)c2-c2ccc(C(=O)OCC)o2)c(O)cc1O | inconclusive: 2.4e-09 M |
| CC(C)NS(=O)(=O)c1ccc(CCC(=O)NCc2ccco2)cc1 | inconclusive: 1.7e-09 M |
| CC1(C)NC(=O)N(CC(O)COc2ccc(-c3ccc(C#N)cc3)cc2)C1=O (stereo unspecified) | inconclusive: 2.8e-09 M |
| c1cncc(CNc2ncncc2-c2ccoc2)c1 | inactive |
| O=C(CN(Cc1ccc2c(c1)OCO2)C(=O)c1cnsn1)NC1CCCC1 | inconclusive: 1.1e-09 M |
| O=C(O)CCCC(=O)Nc1ccccc1C(=O)O | inconclusive: 1.4e-09 M |
| CN(C)[C@@H]1C(=O)C(C(N)=O)=C(O)[C@]2(O)C(=O)C3=C(O)c4c(O)ccc(Cl)c4[C@H](O)[C@H]3C[C@@H]12 | inconclusive: 1.5e-09 M |
| O=C(CCCNS(=O)(=O)c1cccc2nsnc12)NCCc1ccccc1 | inconclusive: 1.3e-09 M |
| Cc1ccc(S(=O)(=O)N2CCN(C(=O)CN3CCN(C)CC3)C2)cc1 | inconclusive: 1.3e-09 M |
| O=C1CC(=O)N(CCc2ccccc2)C(=O)N1CCc1ccccc1 | inconclusive: 1.2e-09 M |
| COc1ccccc1C(=O)Nc1cccc(-c2cn3ccsc3n2)c1 | inconclusive: 3.7e-09 M |
| COc1nc(Nc2ccc(OC)c(Cl)c2)nc(OC)n1 | inconclusive: 1.1e-09 M |
| COc1ccc(CNc2cc(C)ccc2C)c(OC)c1OC | inconclusive: 1.2e-09 M |
| C=CCn1c(=O)/c(=C/c2cc(OC)c(OC)c(OC)c2)s/c1=C(/C#N)c1nc2ccccc2n1C | inactive |
| COc1ccc(C2C(=O)N(C3CCCCC3)CC(=O)N2CCc2ccccc2)cc1OC (stereo unspecified) | inconclusive: 1.1e-09 M |
| CCOC(=O)c1cccc(NC(=O)C(NS(=O)(=O)c2ccc3c(c2)CCN3C(C)=O)C(C)C)c1 (stereo unspecified) | inconclusive: 1.1e-09 M |
| Cn1nc(CC(=O)Nc2cccnc2N2CCOCC2)c2ccccc2c1=O | inconclusive: 1.5e-09 M |
| Cc1ccc(-c2noc(CN3CCC(C(N)=O)CC3)n2)cc1 | inconclusive: 2.8e-09 M |
| COc1ccc(C(=O)NCc2nnc(SCC(=O)NCc3ccc(F)cc3)o2)cc1 | inconclusive: 1.2e-09 M |
| CCC(CO)NCCNC(CC)CO (stereo unspecified) | inconclusive: 1.9e-09 M |
| Cc1cccc2cc(CN(Cc3ccco3)C(=O)c3ccncc3)c(=O)[nH]c12 | inconclusive: 1.4e-09 M |
| Cc1ccc(S(=O)(=O)N2CCN(C3CCN(Cc4ccccc4)CC3)CC2)cc1 | inconclusive: 1.5e-09 M |

| Structure (SMILES) | max dye-equivalent concentration |
| --- | --- |
| O=c1c(CCc2ccccc2)nc2cnc(N3CCNCC3)nc2n1Cc1cccs1 | inactive |
| c1ccc(SCc2nc(-c3ccncc3)no2)cc1 | inconclusive: 1.1e-09 M |
| CCOC(=O)N1CCN(C(=O)c2ccc3c(=O)n(-c4ccc(OC)cc4OC)c(=S)[nH]c3c2)CC1 | inconclusive: 1.1e-09 M |
| COC(=O)c1ccc2c(c1)SC1=C(CCCC1=O)N2 | active: 2.1e-08 M |
| N#CC1=C(N)SC(N)=C(C#N)C1c1c(Cl)cccc1Cl | inactive |
| Cn1nc(-c2ccccc2)c2nc3ccccc3nc21 | inactive |
| O=C(Nc1ccccc1)NC1CCN(CCCN2C(=O)c3ccccc3C2=O)CC1 | inconclusive: 1.1e-09 M |
| C/C(=N\O)c1ccc2[nH]ccc2c1 | inconclusive: 1.3e-09 M |
| CCOC(=O)C1CCCCN1Cc1ccc(OC)c(OC)c1OC (stereo unspecified) | inactive |
| Cn1cnnc1Sc1nc2ccccc2nc1NS(=O)(=O)c1ccccc1 | inactive |
| CCN(CC(=O)Nc1cccc(OC)c1)C(=O)C1CCN(C(=O)Nc2ccccc2)CC1 | inconclusive: 1.2e-09 M |
| Cc1nc2ccc(NC(=O)N3CCCCC3)cc2s1 | inconclusive: 1.6e-09 M |
| COc1ccccc1N1CCN(C(=O)CSc2nnc3n2C(C)(C)Cc2ccccc2-3)CC1 | inconclusive: 1.1e-09 M |
| c1cnc(N2CCN(Cc3ccc4c(c3)OCO4)CC2)nc1 | inconclusive: 1.1e-09 M and inconclusive: 1.2e-09 M |
| O=C(NC1CC2CCCC(C1)N2CC(=O)N1CCCc2ccccc21)C1CCCCC1 (stereo unspecified) | inconclusive: 1.6e-09 M |
| N#CC(C(=O)OC1CCCCC1)c1nc2ccccc2nc1N1CCCCC1 (stereo unspecified) | inactive |
| O=C(NCC1CCCO1)C1C2C=CC3(CN(Cc4cccs4)C(=O)C13)O2 (stereo unspecified) | inconclusive: 1.1e-09 M |
| CCOc1ccc(NC(=O)Cn2nnc(C(=O)NCc3ccccc3OC)c2N)cc1 | inconclusive: 1.7e-09 M |
| C1=Nc2c(Nc3ccccc3)ncnc2Oc2ccccc21 | inconclusive: 1.2e-09 M |
| CC(C)C[C@H](N)c1nnc(S(=O)(=O)Cc2cccc(F)c2)o1 | inconclusive: 3e-09 M |
| CCCOc1ccc(/C(O)=C2/C(=O)C(=O)N(c3cc(C)on3)C2c2ccc(C(=O)OC)cc2)cc1 (stereo unspecified) | inconclusive: 1.1e-09 M |
| CNC(=O)C1CC(=O)N(Cc2ccc3c(c2)OCO3)C(=Nc2ccc(F)cc2)S1 (stereo unspecified) | inconclusive: 1.6e-09 M |

| Structure (SMILES) | max dye-equivalent concentration |
| --- | --- |
| Cn1c(CN2CCOCC2)nnc1SCC(=O)NCCc1ccccc1 | inconclusive: 3e-09 M |
| CC(CN1CCCCC1)OC(=O)c1ccccc1Cl (stereo unspecified) | inconclusive: 1.8e-09 M |
| O=C(CCC(=O)c1cccs1)OCc1nnc(-c2ccccc2)o1 | inconclusive: 1.4e-09 M |
| c1ccc(-c2nnc(Cn3c4ccccc4c4nc5ccccc5nc43)o2)cc1 | inactive |
| CCOC(=O)C(C(=O)OCC)c1cc(Br)c2noc3c2c1C(=O)c1ccccc1-3 | inactive |
| O=C1CCCN1c1cc(Cl)ccc1Cl | inconclusive: 1.7e-09 M |
| O=C(c1cccnc1NCc1ccccc1)N1CCOCC1 | inconclusive: 1.7e-09 M |
| CC(=O)Nc1ccc(S(=O)(=O)NCC2CCC(C(=O)N3CCCCCC3)CC2)cc1 (stereo unspecified) | inconclusive: 1.3e-09 M |
| CCSc1nc2c(c(=O)n(C)c(=O)n2C)n1Cc1ccc(Cl)cc1 | inconclusive: 1.5e-09 M |
| CC(C)(C)Sc1nc(O)cc(=O)[nH]1 | inconclusive: 1.1e-09 M |
| c1ccc(CCNC2=NCCCS2)cc1 | inconclusive: 2.4e-09 M |
| CC(C)(C)c1ccc(S(=O)(=O)/C=C\C#N)cc1 | inconclusive: 1.4e-09 M |
| O=C(CN1CCN(c2ccccc2)CC1)Nc1ccccc1C(F)(F)F | inconclusive: 2.2e-09 M |
| Cc1cc(C)c2c(C)nn(C3CCCCC3)c2n1 | inconclusive: 1.1e-09 M |
| COc1ccc(NC(=O)NC(C)c2ccncc2)cc1OC (stereo unspecified) | inconclusive: 1.2e-09 M |
| N#Cc1ccc2ccn(CC(=O)N3CCCc4ccccc43)c2c1 | inconclusive: 1.2e-09 M |
| NC(CSS(=O)(=O)O)=N[C@@H]1C[C@H]2CC[C@@H]1C2 | inactive |
| CCCCCn1c(Br)nc2c1c(=O)n(CC(N)=O)c(=O)n2C | inconclusive: 2.2e-09 M |
| C=CCn1c(SCC(=O)Nc2ccc3c(c2)OCO3)nc2ccccc2c1=O | inconclusive: 1.7e-09 M |
| CCN(CC(=O)Nc1c(C(=O)OC)[nH]c2ccccc12)c1ccc2c(c1)OCO2 | inconclusive: 1.2e-09 M |
| CCOC(=O)C1=C(C)NC(=O)NC1c1ccc(NC(C)=O)cc1 (stereo unspecified) | inconclusive: 2e-09 M |
| CC(C)(O)C#Cc1ccc(C(=O)N2CCCC2C(=O)O)s1 (stereo unspecified) | inconclusive: 1.1e-09 M |

5 entries from above, arranged by formula weight, smallest number first:

| Structure (SMILES) | max dye-equivalent concentration |
| --- | --- |
| N#Cc1ccc2ccn(CC(=O)N3CCCc4ccccc43)c2c1 | inconclusive: 1.2e-09 M |
| CCCCCn1c(Br)nc2c1c(=O)n(CC(N)=O)c(=O)n2C | inconclusive: 2.2e-09 M |
| Cc1cccc2cc(CN(Cc3ccco3)C(=O)c3ccncc3)c(=O)[nH]c12 | inconclusive: 1.4e-09 M |
| N#CC(C(=O)OC1CCCCC1)c1nc2ccccc2nc1N1CCCCC1 (stereo unspecified) | inactive |
| CCOC(=O)C(C(=O)OCC)c1cc(Br)c2noc3c2c1C(=O)c1ccccc1-3 | inactive |

(more compounds)

| Structure (SMILES) | max dye-equivalent concentration |
| --- | --- |
| CCOc1ccc(OCc2ccc(C(=O)Nc3ccc(Cl)cn3)o2)cc1 | inconclusive: 1.2e-09 M |
| CCN(CC)S(=O)(=O)c1cccc(C(=O)Nc2ccccc2)c1 | inconclusive: 1.2e-09 M |
| CN(C(=O)c1ccc(Cl)c(S(=O)(=O)N2CCOCC2)c1)c1ccccc1C(=O)O | inconclusive: 1.3e-09 M |
| Cc1cccn2cc(CNC(=O)c3ccco3)nc12 | inconclusive: 1.2e-09 M |
| O=S(=O)(c1ccc2c(c1)OCCCO2)N1CCNCC1 | inconclusive: 1.5e-09 M |
| COc1ccc2c(c1)c(C(O)CN1CCC3(CC1)OCCO3)c(C)n2C (stereo unspecified) | inconclusive: 1.4e-09 M |
| Cc1cc(N=Cc2c(O)n(-c3ccc4c(c3)OCO4)c(=O)c3ccccc23)ccn1 | inconclusive: 1.2e-09 M |
| Cc1csc(NC(=O)CSc2nnc(-c3ccoc3C)n2CCc2ccccc2)n1 | inconclusive: 1.9e-09 M |
| COc1ccccc1N1CCN(C(=O)CCn2c(=O)[nH]c3ccsc3c2=O)CC1 | inconclusive: 1.1e-09 M |
| C[C@@H]1C(=O)O[C@@H]2C[C@@]34[C@H]5C[C@@H](C(C)(C)C)[C@@]36[C@@H](OC(=O)[C@@H]6O)O[C@]4(C(=O)O5)[C@@]12O | inactive |
| CCOC(=O)CSc1nnc(CNC(=O)c2ccc(S(=O)(=O)N3CCCC3)cc2)n1C | inconclusive: 1.1e-09 M |
| O=C(Nc1ccc2snnc2c1)N1CCOCC1 | inconclusive: 1.2e-09 M |
| c1csc(Cn2nnnc2CN2CCN(c3nc4ccccc4s3)CC2)c1 | inconclusive: 1.3e-09 M |
| CCNc1ncc2nc(-c3ccccc3)c(=O)n(C)c2n1 | inactive |
| CCN1CCCC1CN(Cc1cc2cc(OC)ccc2[nH]c1=O)C(=O)NCc1ccccc1 (stereo unspecified) | inconclusive: 2.2e-09 M |
| CC(=O)Nc1ccc(S(=O)(=O)NC(C(=O)O)C2=CCC=CC2)cc1 (stereo unspecified) | inconclusive: 1.3e-09 M |
| CCSc1nnc([C@H](C)NC(=O)OC(C)(C)C)o1 | inconclusive: 2.5e-09 M |
| CCOC(=O)c1ccc(NC(=O)CSc2nnc(-c3ccncc3)n2C)cc1 | inconclusive: 1.1e-09 M |
| Cc1ncsc1CCSc1nc2ccccc2c(=O)n1C | inconclusive: 1.8e-09 M |
| COc1cccc(-c2nnn(CC(=O)Nc3ccc(C)cc3C)n2)c1OC | inconclusive: 1.4e-09 M |
